# This is one part of the list. Single values are uncertain, as repeats are few or missing.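 The apoptosis fraction was the count of cleaved-PARP antibody-stained nuclei relative to all DNA-stained nuclei, imaged in 1,536-well plates. Screening doses were set so most cells survived, and baseline and induced cleaved-PARP levels vary greatly across cell lines.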
# What was measured:
# Test in all cases: cleaved PARP positive nuclei fraction relative to DMSO control; melanoma cells; higher = more apoptosis
# Conditions in all cases: library dose: low library concentration; 72 h
# MZ2-MEL = test system: MZ2-MEL
# MeWo = test system: MeWo
# RPMI7951 = test system: RPMI7951
# RVH-421 = test system: RVH-421
# SkMel28 = test system: SkMel28
# SkMel2 = test system: SkMel2
# SkMel30 = test system: SkMel30
# UACC62 = test system: UACC62
SMILES,cleaved PARP positive nuclei fraction (MZ2-MEL) [%],cleaved PARP positive nuclei fraction (MeWo) [%],cleaved PARP positive nuclei fraction (RPMI7951) [%],cleaved PARP positive nuclei fraction (RVH-421) [%],cleaved PARP positive nuclei fraction (SkMel28) [%],cleaved PARP positive nuclei fraction (SkMel2) [%],cleaved PARP positive nuclei fraction (SkMel30) [%],cleaved PARP positive nuclei fraction (UACC62) [%]
"NC(=O)c1ccc(N(C(N)=O)c2c(F)cccc2F)nc1-c1ccc(F)cc1F + Nc1cccc2c1CN(C1CCC(=O)NC1=O)C2=O [lenalidomide] (first compound 0.4 µM, partner dose 1 µM)",105,231,174,238,89.7,100,54.2,101
"CS(=O)(=O)c1ccc(C(=O)Nc2ccc(Cl)c(-c3ccccn3)c2)c(Cl)c1 [vismodegib] + C=C(c1ccc(C(=O)O)cc1)c1cc2c(cc1C)C(C)(C)CCC2(C)C [Bexarotene] (first compound 1 µM, partner dose 2 µM)",31.6,56.5,76.7,134,101,139,121,122
"CC1(C)CCC(c2ccc(Cl)cc2)=C(CN2CCN(c3ccc(C(=O)NS(=O)(=O)c4ccc(N[C@H](CCN5CCOCC5)CSc5ccccc5)c(S(=O)(=O)C(F)(F)F)c4)cc3)CC2)C1 + O=C(O)c1ccc2c(c1)nc(Nc1cccc(Cl)c1)c1ccncc12 [CX4945] (first compound 0.4 µM, partner dose 0.4 µM)",405,185,245,268,59,140,256,44.8
"NC(=O)c1ccc(N(C(N)=O)c2c(F)cccc2F)nc1-c1ccc(F)cc1F + Clc1ccc(Nc2nnc(Cc3ccncc3)c3ccccc23)cc1 [vatalanib] (first compound 0.4 µM, partner dose 2 µM)",114,68.9,103,83,70.8,75.3,88.6,126
"C[C@]1(O)C[C@@H](c2nc(-c3ccc4ccc(-c5ccccc5)nc4c3)c3c(N)nccn32)C1 + Cc1cc(Nc2cc(N3CCN(C)CC3)nc(/C=C/c3ccccc3)n2)n[nH]1 [ENMD2076] (first compound 0.4 µM, partner dose 0.04 µM)",128,57.1,141,91.9,78.9,132,166,98.3
"C[C@@H](N)c1ccc(C(=O)Nc2ccnc3[nH]ccc23)cc1 + CS(=O)(=O)c1ccc(C(=O)Nc2ccc(Cl)c(-c3ccccn3)c2)c(Cl)c1 [vismodegib] (first compound 0.4 µM, partner dose 1 µM)",230,1360,97.1,300,213,245,91.6,215
"C[C@@H](N)c1ccc(C(=O)Nc2ccnc3[nH]ccc23)cc1 + Cn1cnc2c(F)c(Nc3ccc(Br)cc3Cl)c(C(=O)NOCCO)cc21 [selumetinib] (first compound 0.4 µM, partner dose 0.015 µM)",274,555,109,324,257,68.2,306,108
"NC(=O)c1ccc(N(C(N)=O)c2c(F)cccc2F)nc1-c1ccc(F)cc1F + CCCS(=O)(=O)Nc1ccc(F)c(C(=O)c2c[nH]c3ncc(Cl)cc23)c1F [PLX4720] (first compound 0.4 µM, partner dose 0.08 µM)",50.8,87.4,95.4,190,76.2,47,79.5,119
"CC(=O)O[C@@]12CO[C@@H]1C[C@H](O)[C@@]1(C)C(=O)[C@H](O)C3=C(C)[C@@H](OC(=O)[C@H](O)[C@@H](NC(=O)OC(C)(C)C)c4ccccc4)C[C@@](O)([C@@H](OC(=O)c4ccccc4)[C@H]21)C3(C)C [Docetaxel] + NC1(c2ccc(-c3nc4ccn5c(=O)[nH]nc5c4cc3-c3ccccc3)cc2)CCC1 [MK2206] (first compound 0.0001 µM, partner dose 0.4 µM)",642,1540,214,87.5,684,631,341,655
"Cn1cnc2c(F)c(Nc3ccc(Br)cc3Cl)c(C(=O)NOCCO)cc21 [selumetinib] + CNC(=O)c1cc(Oc2ccc(NC(=O)Nc3ccc(Cl)c(C(F)(F)F)c3)cc2)ccn1 [sorafenib] (first compound 0.015 µM, partner dose 0.4 µM)",60.5,143,170,75.8,51,118,81.2,247
"CC1(C)CCC(c2ccc(Cl)cc2)=C(CN2CCN(c3ccc(C(=O)NS(=O)(=O)c4ccc(N[C@H](CCN5CCOCC5)CSc5ccccc5)c(S(=O)(=O)C(F)(F)F)c4)cc3)CC2)C1 + O=C(O)[C@@H]1[O][Sb](=[O])([O][Sb]2(=[O])[O][C@H]([C@H](O)CO)[C@H](O)[C@H](C(=O)O)[O]2)[O][C@H]([C@H](O)CO)[C@@H]1O [stibogluconate] (first compound 0.4 µM, partner dose 2 µM)",308,226,182,62.4,74.1,120,201,122
"NC(=O)c1ccc(N(C(N)=O)c2c(F)cccc2F)nc1-c1ccc(F)cc1F + Cc1nc(Nc2ncc(C(=O)Nc3c(C)cccc3Cl)s2)cc(N2CCN(CCO)CC2)n1 [dasatanib] (first compound 0.4 µM, partner dose 0.004 µM)",147,130,121,144,51.5,98.5,61.6,120
"CCN(CC)CCNC(=O)c1c(C)[nH]c(/C=C2\C(=O)Nc3ccc(F)cc32)c1C [sunitinib] + Clc1ccc(Nc2nnc(Cc3ccncc3)c3ccccc23)cc1 [vatalanib] (first compound 0.4 µM, partner dose 2 µM)",97.6,107,89.6,85,376,43,148,80.5
"NC(=O)c1ccc(N(C(N)=O)c2c(F)cccc2F)nc1-c1ccc(F)cc1F + C=CCNC1=C2C[C@@H](C)C[C@H](OC)[C@H](O)[C@@H](C)/C=C(\C)[C@H](OC(N)=O)[C@@H](OC)/C=C\C=C(/C)C(=O)NC(=CC1=O)C2=O [Tanespimycin] (first compound 0.4 µM, partner dose 0.002 µM)",119,137,81.9,174,91.4,104,92.6,126
"COc1ccc(C2=N[C@@H](c3ccc(Cl)cc3)[C@@H](c3ccc(Cl)cc3)N2C(=O)N2CCNC(=O)C2)c(OC(C)C)c1 [Nutlin-3] + NC1(c2ccc(-c3nc4ccn5c(=O)[nH]nc5c4cc3-c3ccccc3)cc2)CCC1 [MK2206] (first compound 0.1 µM, partner dose 0.4 µM)",118,58.3,61.1,53.7,119,120,234,185
"NC1(c2ccc(-c3nc4ccn5c(=O)[nH]nc5c4cc3-c3ccccc3)cc2)CCC1 + CN1CCN(c2ccc3nc(-c4c(N)c5c(F)cccc5[nH]c4=O)[nH]c3c2)CC1 [Dovitinib] (first compound 0.4 µM, partner dose 0.1 µM)",27.2,61.7,45.2,143,141,48.5,68.7,308
"NC1(c2ccc(-c3nc4ccn5c(=O)[nH]nc5c4cc3-c3ccccc3)cc2)CCC1 + C#Cc1cccc(Nc2ncnc3cc(OCCOC)c(OCCOC)cc23)c1 [erlotinib] (first compound 0.4 µM, partner dose 0.8 µM)",65.3,45.8,79.6,170,192,153,27.7,156
"NC1(c2ccc(-c3nc4ccn5c(=O)[nH]nc5c4cc3-c3ccccc3)cc2)CCC1 + C=CCNC1=C2C[C@@H](C)C[C@H](OC)[C@H](O)[C@@H](C)/C=C(\C)[C@H](OC(N)=O)[C@@H](OC)/C=C\C=C(/C)C(=O)NC(=CC1=O)C2=O [Tanespimycin] (first compound 0.4 µM, partner dose 0.002 µM)",73.4,59.1,106,241,100,96.4,81.3,369
"COc1ccc(C2=N[C@@H](c3ccc(Cl)cc3)[C@@H](c3ccc(Cl)cc3)N2C(=O)N2CCNC(=O)C2)c(OC(C)C)c1 [Nutlin-3] + Nc1cccc2c1CN(C1CCC(=O)NC1=O)C2=O [lenalidomide] (first compound 0.1 µM, partner dose 1 µM)",109,75.2,62.8,166,169,133,93.3,166
"CCN(CC)CCNC(=O)c1c(C)[nH]c(/C=C2\C(=O)Nc3ccc(F)cc32)c1C [sunitinib] + Cc1nc(Nc2ncc(C(=O)Nc3c(C)cccc3Cl)s2)cc(N2CCN(CCO)CC2)n1 [dasatanib] (first compound 0.4 µM, partner dose 0.004 µM)",111,266,110,116,95,67.5,92.9,218
"CC(=O)O[C@@]12CO[C@@H]1C[C@H](O)[C@@]1(C)C(=O)[C@H](O)C3=C(C)[C@@H](OC(=O)[C@H](O)[C@@H](NC(=O)OC(C)(C)C)c4ccccc4)C[C@@](O)([C@@H](OC(=O)c4ccccc4)[C@H]21)C3(C)C [Docetaxel] + O=C(O)[C@@H]1[O][Sb](=[O])([O][Sb]2(=[O])[O][C@H]([C@H](O)CO)[C@H](O)[C@H](C(=O)O)[O]2)[O][C@H]([C@H](O)CO)[C@@H]1O [stibogluconate] (first compound 0.0001 µM, partner dose 2 µM)",679,718,266,121,247,650,130,435
"C[C@]1(O)C[C@@H](c2nc(-c3ccc4ccc(-c5ccccc5)nc4c3)c3c(N)nccn32)C1 + Clc1ccc(Nc2nnc(Cc3ccncc3)c3ccccc23)cc1 [vatalanib] (first compound 0.4 µM, partner dose 2 µM)",134,200,33.6,82.5,80.7,164,21.2,34.3

# 6 entries from above, with bars between the fields:
SMILES | cleaved PARP positive nuclei fraction (MZ2-MEL) [%] | cleaved PARP positive nuclei fraction (MeWo) [%] | cleaved PARP positive nuclei fraction (RPMI7951) [%] | cleaved PARP positive nuclei fraction (RVH-421) [%] | cleaved PARP positive nuclei fraction (SkMel28) [%] | cleaved PARP positive nuclei fraction (SkMel2) [%] | cleaved PARP positive nuclei fraction (SkMel30) [%] | cleaved PARP positive nuclei fraction (UACC62) [%]
NC(=O)c1ccc(N(C(N)=O)c2c(F)cccc2F)nc1-c1ccc(F)cc1F + Cc1nc(Nc2ncc(C(=O)Nc3c(C)cccc3Cl)s2)cc(N2CCN(CCO)CC2)n1 [dasatanib] (first compound 0.4 µM, partner dose 0.004 µM) | 147 | 130 | 121 | 144 | 51.5 | 98.5 | 61.6 | 120
CCN(CC)CCNC(=O)c1c(C)[nH]c(/C=C2\C(=O)Nc3ccc(F)cc32)c1C [sunitinib] + Clc1ccc(Nc2nnc(Cc3ccncc3)c3ccccc23)cc1 [vatalanib] (first compound 0.4 µM, partner dose 2 µM) | 97.6 | 107 | 89.6 | 85 | 376 | 43 | 148 | 80.5
NC(=O)c1ccc(N(C(N)=O)c2c(F)cccc2F)nc1-c1ccc(F)cc1F + C=CCNC1=C2C[C@@H](C)C[C@H](OC)[C@H](O)[C@@H](C)/C=C(\C)[C@H](OC(N)=O)[C@@H](OC)/C=C\C=C(/C)C(=O)NC(=CC1=O)C2=O [Tanespimycin] (first compound 0.4 µM, partner dose 0.002 µM) | 119 | 137 | 81.9 | 174 | 91.4 | 104 | 92.6 | 126
COc1ccc(C2=N[C@@H](c3ccc(Cl)cc3)[C@@H](c3ccc(Cl)cc3)N2C(=O)N2CCNC(=O)C2)c(OC(C)C)c1 [Nutlin-3] + NC1(c2ccc(-c3nc4ccn5c(=O)[nH]nc5c4cc3-c3ccccc3)cc2)CCC1 [MK2206] (first compound 0.1 µM, partner dose 0.4 µM) | 118 | 58.3 | 61.1 | 53.7 | 119 | 120 | 234 | 185
NC1(c2ccc(-c3nc4ccn5c(=O)[nH]nc5c4cc3-c3ccccc3)cc2)CCC1 + CN1CCN(c2ccc3nc(-c4c(N)c5c(F)cccc5[nH]c4=O)[nH]c3c2)CC1 [Dovitinib] (first compound 0.4 µM, partner dose 0.1 µM) | 27.2 | 61.7 | 45.2 | 143 | 141 | 48.5 | 68.7 | 308
NC1(c2ccc(-c3nc4ccn5c(=O)[nH]nc5c4cc3-c3ccccc3)cc2)CCC1 + C#Cc1cccc(Nc2ncnc3cc(OCCOC)c(OCCOC)cc23)c1 [erlotinib] (first compound 0.4 µM, partner dose 0.8 µM) | 65.3 | 45.8 | 79.6 | 170 | 192 | 153 | 27.7 | 156

# From the supplement of paper PMC4604168 (melanoma cell lines)
